Each molecule was assayed on E. coli K-12 proteome. Conditions: S-sulfhydrated protein pull-down, TMT LC-MS3; ΔdecR E. coli lysate.

Molecule	ΔdecR
sp|P14407|FUMB_ECOLI;sp|P0AC33|FUMA_ECOLI (protein, UniProt P14407 1-548; P0AC33 2-548, looked up) Fumarate hydratase class I, … 1: MSNKPFIYQAPFPMGKDNTEYYLLTSDYVSVADFDGETILKVEPEALTLLAQQAFHDASFMLRPAHQKQVAAILHDPEASENDKYVALQFLRNSEIAAKGVLPTCQDTGTAIIVGKKGQRVWTGGGDEETLSKGVYNTYIEDNLRYSQNAALDMYKEVNTGTNLPAQIDLYAVDGDEYKFLCVAKGGGSANKTYLYQETKALLTPGKLKNFLVEKMRTLGTAACPPYHIAFVIGGTSAETNLKTVKLASAHYYDELPTEGNEHGQAFRDVQLEQELLEEAQKLGLGAQFGGKYFAHDIRVIRLPRHGASCPVGMGVSCSADRNIKAKINREGIWIEKLEHNPGQYIPQELRQAGEGEAVKVDLNRPMKEILAQLSQYPVSTRLSLTGTIIVGRDIAHAKLKELIDAGKELPQYIKDHPIYYAGPAKTPAGYPSGSLGPTTAGRMDSYVDLLQSHGGSMIMLAKGNRSQQVTDACHKHGGFYLGSIGGPAAVLAQQSIKHLECVAYPELGMEAIWKIEVEDFPAFILVDDKGNDFFQQIVNKQCANCTK Fumarate hydratase class I, … 2: SNKPFHYQAPFPLKKDDTEYYLLTSEHVSVSEFEGQEILKVAPEALTLLARQAFHDASFMLRPAHQQQVADILRDPEASENDKYVALQFLRNSDIAAKGVLPTCQDTGTAIIVGKKGQRVWTGGGDEAALARGVYNTYIEDNLRYSQNAPLDMYKEVNTGTNLPAQIDLYAVDGDEYKFLCIAKGGGSANKTYLYQETKALLTPGKLKNYLVEKMRTLGTAACPPYHIAFVIGGTSAETNLKTVKLASAKYYDELPTEGNEHGQAFRDVELEKELLIEAQNLGLGAQFGGKYFAHDIRVIRLPRHGASCPVGMGVSCSADRNIKAKINRQGIWIEKLEHNPGKYIPEELRKAGEGEAVRVDLNRPMKEILAQLSQYPVSTRLSLNGTIIVGRDIAHAKLKERMDNGEGLPQYIKDHPIYYAGPAKTPEGYASGSLGPTTAGRMDSYVDQLQAQGGSMIMLAKGNRSQQVTDACKKHGGFYLGSIGGPAAVLAQGSIKSLECVEYPELGMEAIWKIEVEDFPAFILVDDKGNDFFQQIQLTQCTRCVK	1.14
sp|P33602|NUOG_ECOLI (protein, UniProt P33602 2-908, looked up) NADH-quinone oxidoreductase …: ATIHVDGKEYEVNGADNLLEACLSLGLDIPYFCWHPALGSVGACRQCAVKQYQNAEDTRGRLVMSCMTPASDGTFISIDDEEAKQFRESVVEWLMTNHPHDCPVCEEGGNCHLQDMTVMTGHSFRRYRFTKRTHRNQDLGPFISHEMNRCIACYRCVRYYKDYADGTDLGVYGAHDNVYFGRPEDGTLESEFSGNLVEICPTGVFTDKTHSERYNRKWDMQFAPSICQQCSIGCNISPGERYGELRRIENRYNGTVNHYFLCDRGRFGYGYVNLKDRPRQPVQRRGDDFITLNAEQAMQGAADILRQSKKVIGIGSPRASVESNFALRELVGEENFYTGIAHGEQERLQLALKVLREGGIYTPALREIESYDAVLVLGEDVTQTGARVALAVRQAVKGKAREMAAAQKVADWQIAAILNIGQRAKHPLFVTNVDDTRLDDIAAWTYRAPVEDQARLGFAIAHALDNSAPAVDGIEPELQSKIDVIVQALAGAKKPLIISGTNAGSLEVIQAAANVAKALKGRGADVGITMIARSVNSMGLGIMGGGSLEEALTELETGRADAVVVLENDLHRHASAIRVNAALAKAPLVMVVDHQRTAIMENAHLVLSAASFAESDGTVINNEGRAQRFFQVYDPAYYDSKTVMLESWRWLHSLHSTLLSREVDWTQLDHVIDAVVAKIPELAGIKDAAPDATFRIRGQKLAREPHRYSGRTAMRANISVHEPRQPQDIDTMFTFSMEGNNQPTAHRSQVPFAWAPGWNSPQAWNKFQDEVGGKLRFGDPGVRLFETSENGLDYFTSVPARFQPQDGKWRIAPYYHLFGSDELSQRAPVFQSRMPQPYIKLNPADAAKLGVNAGTRVSFSYDGNTVTLPVEIAEGLTAGQVGLPMGMSGIAPVLAGAHLEDLKEAQQ	1.29
sp|P00957|SYA_ECOLI (protein, UniProt P00957 2-876, looked up) Alanine--tRNA ligase: SKSTAEIRQAFLDFFHSKGHQVVASSSLVPHNDPTLLFTNAGMNQFKDVFLGLDKRNYSRATTSQRCVRAGGKHNDLENVGYTARHHTFFEMLGNFSFGDYFKHDAIQFAWELLTSEKWFALPKERLWVTVYESDDEAYEIWEKEVGIPRERIIRIGDNKGAPYASDNFWQMGDTGPCGPCTEIFYDHGDHIWGGPPGSPEEDGDRYIEIWNIVFMQFNRQADGTMEPLPKPSVDTGMGLERIAAVLQHVNSNYDIDLFRTLIQAVAKVTGATDLSNKSLRVIADHIRSCAFLIADGVMPSNENRGYVLRRIIRRAVRHGNMLGAKETFFYKLVGPLIDVMGSAGEDLKRQQAQVEQVLKTEEEQFARTLERGLALLDEELAKLSGDTLDGETAFRLYDTYGFPVDLTADVCRERNIKVDEAGFEAAMEEQRRRAREASGFGADYNAMIRVDSASEFKGYDHLELNGKVTALFVDGKAVDAINAGQEAVVVLDQTPFYAESGGQVGDKGELKGANFSFAVEDTQKYGQAIGHIGKLAAGSLKVGDAVQADVDEARRARIRLNHSATHLMHAALRQVLGTHVSQKGSLVNDKVLRFDFSHNEAMKPEEIRAVEDLVNTQIRRNLPIETNIMDLEAAKAKGAMALFGEKYDERVRVLSMGDFSTELCGGTHASRTGDIGLFRIISESGTAAGVRRIEAVTGEGAIATVHADSDRLSEVAHLLKGDSNNLADKVRSVLERTRQLEKELQQLKEQAAAQESANLSSKAIDVNGVKLLVSELSGVEPKMLRTMVDDLKNQLGSTIIVLATVVEGKVSLIAGVSKDVTDRVKAGELIGMVAQQVGGKGGGRPDMAQAGGTDAAALPAALASVKGWVSAKLQ	1.25
sp|P0ADE8|YGFZ_ECOLI (protein, UniProt P0ADE8 2-326, looked up) tRNA-modifying protein YgfZ: AFTPFPPRQPTASARLPLTLMTLDDWALATITGADSEKYMQGQVTADVSQMAEDQHLLAAHCDAKGKMWSNLRLFRDGDGFAWIERRSVREPQLTELKKYAVFSKVTIAPDDERVLLGVAGFQARAALANLFSELPSKEKQVVKEGATTLLWFEHPAERFLIVTDEATANMLTDKLRGEAELNNSQQWLALNIEAGFPVIDAANSGQFIPQATNLQALGGISFKKGCYTGQEMVARAKFRGANKRALWLLAGSASRLPEAGEDLELKMGENWRRTGTVLAAVKLEDGQVVVQVVMNNDMEPDSIFRVRDDANTLHIEPLPYSLEE	1.43
sp|P00968|CARB_ECOLI (protein, UniProt P00968 2-1073, looked up) Carbamoyl phosphate synthase …: PKRTDIKSILILGAGPIVIGQACEFDYSGAQACKALREEGYRVILVNSNPATIMTDPEMADATYIEPIHWEVVRKIIEKERPDAVLPTMGGQTALNCALELERQGVLEEFGVTMIGATADAIDKAEDRRRFDVAMKKIGLETARSGIAHTMEEALAVAADVGFPCIIRPSFTMGGSGGGIAYNREEFEEICARGLDLSPTKELLIDESLIGWKEYEMEVVRDKNDNCIIVCSIENFDAMGIHTGDSITVAPAQTLTDKEYQIMRNASMAVLREIGVETGGSNVQFAVNPKNGRLIVIEMNPRVSRSSALASKATGFPIAKVAAKLAVGYTLDELMNDITGGRTPASFEPSIDYVVTKIPRFNFEKFAGANDRLTTQMKSVGEVMAIGRTQQESLQKALRGLEVGATGFDPKVSLDDPEALTKIRRELKDAGADRIWYIADAFRAGLSVDGVFNLTNIDRWFLVQIEELVRLEEKVAEVGITGLNADFLRQLKRKGFADARLAKLAGVREAEIRKLRDQYDLHPVYKRVDTCAAEFATDTAYMYSTYEEECEANPSTDREKIMVLGGGPNRIGQGIEFDYCCVHASLALREDGYETIMVNCNPETVSTDYDTSDRLYFEPVTLEDVLEIVRIEKPKGVIVQYGGQTPLKLARALEAAGVPVIGTSPDAIDRAEDRERFQHAVERLKLKQPANATVTAIEMAVEKAKEIGYPLVVRPSYVLGGRAMEIVYDEADLRRYFQTAVSVSNDAPVLLDHFLDDAVEVDVDAICDGEMVLIGGIMEHIEQAGVHSGDSACSLPAYTLSQEIQDVMRQQVQKLAFELQVRGLMNVQFAVKNNEVYLIEVNPRAARTVPFVSKATGVPLAKVAARVMAGKSLAEQGVTKEVIPPYYSVKEVVLPFNKFPGVDPLLGPEMRSTGEVMGVGRTFAEAFAKAQLGSNSTMKKHGRALLSVREGDKERVVDLAAKLLKQGFELDATHGTAIVLGEAGINPRLVNKVHEGRPHIQDRIKNGEYTYIINTTSGRRAIEDSRVIRRSALQYKVHYDTTLNGGFATAMALNADATEKVISVQEMHAQIK	1.52

Source: patent US20210260009A1, “METHODS AND COMPOSITIONS FOR THE TREATMENT OF A RENAL DISEASE” (priority 2020, published 2021)
